The other results are listed elsewhere or left out.

The chains behind the UniProt entries cited, without tags or fusion partners. Where a name states a change or a piece, a line headed by the entry shows the natural chain unless it says otherwise.
UniProt Q8IZQ5, whole entry, looked up: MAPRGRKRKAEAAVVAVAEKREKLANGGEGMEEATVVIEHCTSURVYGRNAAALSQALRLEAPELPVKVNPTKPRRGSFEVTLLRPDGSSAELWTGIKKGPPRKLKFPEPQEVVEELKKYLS
UniProt Q96EQ0: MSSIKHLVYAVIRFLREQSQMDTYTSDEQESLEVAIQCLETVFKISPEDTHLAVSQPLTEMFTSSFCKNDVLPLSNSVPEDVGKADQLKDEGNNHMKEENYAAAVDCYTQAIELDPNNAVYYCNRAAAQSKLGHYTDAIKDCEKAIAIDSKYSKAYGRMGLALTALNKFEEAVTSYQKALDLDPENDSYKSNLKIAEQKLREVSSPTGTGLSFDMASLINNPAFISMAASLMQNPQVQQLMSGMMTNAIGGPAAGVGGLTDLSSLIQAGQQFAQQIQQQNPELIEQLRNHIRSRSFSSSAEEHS
UniProt Q96ES7: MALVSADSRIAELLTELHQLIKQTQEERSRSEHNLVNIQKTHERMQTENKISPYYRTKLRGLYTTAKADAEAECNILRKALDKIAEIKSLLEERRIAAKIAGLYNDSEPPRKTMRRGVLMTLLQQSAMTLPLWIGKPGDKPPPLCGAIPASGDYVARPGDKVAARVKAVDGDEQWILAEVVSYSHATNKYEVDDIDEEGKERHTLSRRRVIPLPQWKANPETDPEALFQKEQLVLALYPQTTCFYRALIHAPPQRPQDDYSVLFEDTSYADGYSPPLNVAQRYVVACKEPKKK
UniProt Q15427: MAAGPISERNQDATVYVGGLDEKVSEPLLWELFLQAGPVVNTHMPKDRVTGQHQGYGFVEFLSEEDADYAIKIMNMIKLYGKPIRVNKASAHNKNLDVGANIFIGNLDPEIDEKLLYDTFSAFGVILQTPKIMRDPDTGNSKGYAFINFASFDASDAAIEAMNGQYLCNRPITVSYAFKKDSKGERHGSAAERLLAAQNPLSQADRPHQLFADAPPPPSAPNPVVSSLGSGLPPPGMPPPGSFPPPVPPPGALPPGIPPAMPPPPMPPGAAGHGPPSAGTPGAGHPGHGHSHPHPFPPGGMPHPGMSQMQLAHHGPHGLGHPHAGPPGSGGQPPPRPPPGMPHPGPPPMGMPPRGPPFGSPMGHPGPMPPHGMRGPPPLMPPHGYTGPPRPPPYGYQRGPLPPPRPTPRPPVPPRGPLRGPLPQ
UniProt O75533, whole entry, looked up: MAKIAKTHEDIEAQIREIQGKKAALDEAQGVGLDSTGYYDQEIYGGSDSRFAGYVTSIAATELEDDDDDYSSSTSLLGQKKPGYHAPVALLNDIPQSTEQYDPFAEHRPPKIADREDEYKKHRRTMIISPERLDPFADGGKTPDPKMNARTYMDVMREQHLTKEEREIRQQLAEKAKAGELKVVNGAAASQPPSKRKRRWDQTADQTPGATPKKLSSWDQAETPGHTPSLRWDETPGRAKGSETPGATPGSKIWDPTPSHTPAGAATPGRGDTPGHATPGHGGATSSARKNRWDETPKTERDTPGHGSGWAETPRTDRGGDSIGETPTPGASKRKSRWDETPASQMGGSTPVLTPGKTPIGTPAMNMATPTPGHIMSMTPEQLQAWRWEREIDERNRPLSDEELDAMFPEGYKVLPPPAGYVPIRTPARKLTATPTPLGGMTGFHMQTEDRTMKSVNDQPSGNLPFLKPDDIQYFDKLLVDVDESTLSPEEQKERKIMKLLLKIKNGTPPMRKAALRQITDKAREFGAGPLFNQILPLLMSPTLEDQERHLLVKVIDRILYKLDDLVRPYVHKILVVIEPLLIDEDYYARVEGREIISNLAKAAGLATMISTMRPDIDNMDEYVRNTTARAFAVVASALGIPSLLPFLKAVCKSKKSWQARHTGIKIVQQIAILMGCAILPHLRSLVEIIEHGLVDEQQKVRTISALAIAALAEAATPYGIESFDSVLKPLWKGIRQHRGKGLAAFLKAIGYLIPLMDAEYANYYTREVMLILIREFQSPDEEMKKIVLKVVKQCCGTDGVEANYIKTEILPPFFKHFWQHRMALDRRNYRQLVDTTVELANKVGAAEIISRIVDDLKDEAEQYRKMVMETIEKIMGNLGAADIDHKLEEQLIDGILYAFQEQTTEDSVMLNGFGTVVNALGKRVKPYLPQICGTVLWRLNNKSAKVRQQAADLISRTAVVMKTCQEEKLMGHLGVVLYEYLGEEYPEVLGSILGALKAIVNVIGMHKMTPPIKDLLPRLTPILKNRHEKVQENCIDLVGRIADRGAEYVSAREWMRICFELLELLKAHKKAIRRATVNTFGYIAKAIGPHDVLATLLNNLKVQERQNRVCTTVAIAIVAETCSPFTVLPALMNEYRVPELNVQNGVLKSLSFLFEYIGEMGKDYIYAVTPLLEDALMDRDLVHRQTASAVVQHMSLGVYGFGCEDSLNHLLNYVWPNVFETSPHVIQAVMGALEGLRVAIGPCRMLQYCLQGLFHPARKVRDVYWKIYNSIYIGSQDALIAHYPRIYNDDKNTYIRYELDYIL
UniProt Q9C0C4, whole entry, looked up: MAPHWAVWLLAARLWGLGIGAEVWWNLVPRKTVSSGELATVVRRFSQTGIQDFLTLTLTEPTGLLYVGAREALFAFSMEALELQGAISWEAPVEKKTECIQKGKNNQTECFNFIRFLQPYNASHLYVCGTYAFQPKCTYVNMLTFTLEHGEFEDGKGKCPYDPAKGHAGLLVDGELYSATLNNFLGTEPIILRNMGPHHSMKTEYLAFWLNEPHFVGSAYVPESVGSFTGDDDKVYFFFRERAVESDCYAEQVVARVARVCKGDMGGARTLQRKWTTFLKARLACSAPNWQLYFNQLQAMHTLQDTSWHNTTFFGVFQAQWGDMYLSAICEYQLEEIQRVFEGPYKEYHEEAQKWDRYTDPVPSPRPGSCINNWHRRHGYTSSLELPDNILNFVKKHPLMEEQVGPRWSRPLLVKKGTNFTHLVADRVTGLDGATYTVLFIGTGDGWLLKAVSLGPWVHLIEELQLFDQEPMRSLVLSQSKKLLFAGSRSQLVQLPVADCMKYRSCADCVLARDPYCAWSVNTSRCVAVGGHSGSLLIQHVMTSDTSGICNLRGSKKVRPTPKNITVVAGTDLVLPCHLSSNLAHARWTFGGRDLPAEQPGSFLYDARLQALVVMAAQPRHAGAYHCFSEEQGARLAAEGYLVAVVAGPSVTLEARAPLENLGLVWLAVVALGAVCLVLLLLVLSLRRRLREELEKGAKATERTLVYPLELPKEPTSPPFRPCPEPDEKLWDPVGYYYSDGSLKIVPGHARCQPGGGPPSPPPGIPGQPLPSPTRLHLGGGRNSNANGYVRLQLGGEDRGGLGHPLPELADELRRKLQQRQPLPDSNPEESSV
UniProt Q9UGK8: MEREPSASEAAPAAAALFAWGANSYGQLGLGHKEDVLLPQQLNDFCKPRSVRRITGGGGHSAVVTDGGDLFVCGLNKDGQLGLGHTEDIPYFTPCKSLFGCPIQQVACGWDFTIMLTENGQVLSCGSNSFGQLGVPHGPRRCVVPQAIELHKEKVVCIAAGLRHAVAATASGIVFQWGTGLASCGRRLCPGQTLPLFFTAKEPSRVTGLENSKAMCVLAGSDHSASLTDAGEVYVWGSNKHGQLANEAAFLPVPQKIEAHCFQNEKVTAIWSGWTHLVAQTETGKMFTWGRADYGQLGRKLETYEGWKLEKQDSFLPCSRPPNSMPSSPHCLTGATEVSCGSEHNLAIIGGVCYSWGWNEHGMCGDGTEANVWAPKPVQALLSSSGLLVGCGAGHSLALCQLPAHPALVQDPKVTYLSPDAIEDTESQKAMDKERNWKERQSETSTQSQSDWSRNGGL
UniProt P34896: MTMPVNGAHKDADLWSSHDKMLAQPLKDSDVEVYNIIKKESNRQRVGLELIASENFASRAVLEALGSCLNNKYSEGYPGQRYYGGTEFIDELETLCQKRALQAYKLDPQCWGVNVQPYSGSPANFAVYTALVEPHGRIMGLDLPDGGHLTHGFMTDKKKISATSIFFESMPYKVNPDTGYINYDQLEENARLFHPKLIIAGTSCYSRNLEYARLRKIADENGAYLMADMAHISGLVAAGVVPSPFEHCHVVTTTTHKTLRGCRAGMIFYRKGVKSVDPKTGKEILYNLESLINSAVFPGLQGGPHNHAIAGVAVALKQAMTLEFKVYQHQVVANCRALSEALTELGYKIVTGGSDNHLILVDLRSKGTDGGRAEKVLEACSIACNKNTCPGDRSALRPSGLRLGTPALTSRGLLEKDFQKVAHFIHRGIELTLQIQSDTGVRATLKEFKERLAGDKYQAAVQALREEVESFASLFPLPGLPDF
UniProt Q8NBJ9: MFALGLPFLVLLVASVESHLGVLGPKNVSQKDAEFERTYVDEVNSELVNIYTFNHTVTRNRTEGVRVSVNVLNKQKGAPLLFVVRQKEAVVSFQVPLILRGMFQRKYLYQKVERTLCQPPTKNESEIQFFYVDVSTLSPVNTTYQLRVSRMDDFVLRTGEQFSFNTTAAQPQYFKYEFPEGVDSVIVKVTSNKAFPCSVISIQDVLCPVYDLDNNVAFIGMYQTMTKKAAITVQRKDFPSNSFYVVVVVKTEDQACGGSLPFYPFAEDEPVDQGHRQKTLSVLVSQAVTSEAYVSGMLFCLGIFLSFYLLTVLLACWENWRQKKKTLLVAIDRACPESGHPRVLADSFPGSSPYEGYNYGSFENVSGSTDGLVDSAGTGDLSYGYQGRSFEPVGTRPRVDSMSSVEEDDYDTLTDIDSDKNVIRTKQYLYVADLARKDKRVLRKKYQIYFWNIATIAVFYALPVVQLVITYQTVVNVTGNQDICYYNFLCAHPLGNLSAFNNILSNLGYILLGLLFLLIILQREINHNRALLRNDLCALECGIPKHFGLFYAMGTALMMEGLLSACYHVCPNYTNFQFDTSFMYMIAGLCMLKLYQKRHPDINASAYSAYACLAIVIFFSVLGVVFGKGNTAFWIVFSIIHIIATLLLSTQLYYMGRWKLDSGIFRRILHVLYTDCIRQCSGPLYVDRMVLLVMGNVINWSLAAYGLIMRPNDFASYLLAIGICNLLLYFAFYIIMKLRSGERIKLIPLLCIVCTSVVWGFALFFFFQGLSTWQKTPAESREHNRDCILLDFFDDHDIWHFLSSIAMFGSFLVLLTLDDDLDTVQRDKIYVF
UniProt Q9UBV2: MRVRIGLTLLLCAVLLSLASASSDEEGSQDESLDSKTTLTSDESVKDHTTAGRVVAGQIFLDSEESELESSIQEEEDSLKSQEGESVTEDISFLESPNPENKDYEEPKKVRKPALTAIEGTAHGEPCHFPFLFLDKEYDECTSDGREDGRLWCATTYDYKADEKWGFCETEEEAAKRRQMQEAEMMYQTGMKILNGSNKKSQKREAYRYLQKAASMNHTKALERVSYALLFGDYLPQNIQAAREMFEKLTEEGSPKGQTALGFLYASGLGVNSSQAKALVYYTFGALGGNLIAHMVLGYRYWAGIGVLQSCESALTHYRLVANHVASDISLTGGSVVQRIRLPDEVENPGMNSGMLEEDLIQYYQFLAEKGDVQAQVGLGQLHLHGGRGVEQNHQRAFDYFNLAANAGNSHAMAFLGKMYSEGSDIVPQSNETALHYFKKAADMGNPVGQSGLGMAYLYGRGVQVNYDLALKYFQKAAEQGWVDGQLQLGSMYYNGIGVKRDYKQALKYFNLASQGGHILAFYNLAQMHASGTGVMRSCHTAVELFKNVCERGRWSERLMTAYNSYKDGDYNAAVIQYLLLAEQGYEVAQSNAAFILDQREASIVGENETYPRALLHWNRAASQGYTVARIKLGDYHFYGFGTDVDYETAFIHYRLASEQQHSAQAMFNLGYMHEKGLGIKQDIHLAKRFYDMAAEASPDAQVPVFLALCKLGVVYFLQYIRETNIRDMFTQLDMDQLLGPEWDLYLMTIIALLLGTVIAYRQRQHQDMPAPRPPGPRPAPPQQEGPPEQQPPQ
UniProt Q6P4A7: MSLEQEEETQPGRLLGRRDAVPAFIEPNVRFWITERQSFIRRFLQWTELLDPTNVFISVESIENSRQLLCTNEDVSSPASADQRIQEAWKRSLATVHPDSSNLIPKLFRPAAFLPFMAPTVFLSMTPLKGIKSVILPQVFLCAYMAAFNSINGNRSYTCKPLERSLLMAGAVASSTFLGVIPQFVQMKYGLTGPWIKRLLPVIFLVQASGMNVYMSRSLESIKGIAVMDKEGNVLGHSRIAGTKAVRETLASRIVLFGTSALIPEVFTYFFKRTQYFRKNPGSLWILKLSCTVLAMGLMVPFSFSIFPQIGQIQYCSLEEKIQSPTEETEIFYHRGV
UniProt P05543: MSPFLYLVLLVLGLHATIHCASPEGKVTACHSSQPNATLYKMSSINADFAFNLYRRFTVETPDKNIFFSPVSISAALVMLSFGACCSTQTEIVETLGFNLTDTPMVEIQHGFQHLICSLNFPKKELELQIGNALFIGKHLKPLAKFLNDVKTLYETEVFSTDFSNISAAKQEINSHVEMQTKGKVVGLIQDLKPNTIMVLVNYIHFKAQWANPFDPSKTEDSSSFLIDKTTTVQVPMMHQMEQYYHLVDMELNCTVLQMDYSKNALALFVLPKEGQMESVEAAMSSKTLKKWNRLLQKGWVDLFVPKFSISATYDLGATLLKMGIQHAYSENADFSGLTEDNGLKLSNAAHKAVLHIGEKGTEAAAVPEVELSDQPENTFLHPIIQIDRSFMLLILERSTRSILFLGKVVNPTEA

Compound in one assay: C#Cc1cccc(Nc2ncnc3cc(OCCOC)c(OCCOC)cc23)c1 [erlotinib]
Nature of the assay: log2 fold change, soluble protein after heating vs DMSO (PISA); higher = thermal stabilisation; K562 cells, 10 uM, 30 min; active = over 0.2 and 3.5 SD of the protein, either way, in both replicates (recomputed). The procedure, abridged:
(§1)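 Aliquots of K562 cells (2×10^6 cells/mL) treated with 10 μM compound for 30 min were heated for 3 min over 48°C-58°C. After pooling and extraction in PBS with 0.5% NP-40 at 4°C, soluble protein from a 21,000xg, 90 min spin was quantified by TMTpro 16plex LC-MS/MS with channel sums equalised. Thermal stability is expressed against control samples, from duplicates, as a log2 fold change.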
In the case of SIRT1 (UniProt Q96EB6), the log2 fold change is inactive: -0.007.

As to SELENOH (UniProt Q8IZQ5), the log2 fold change was inactive: 0.032. For the target SGTB (UniProt Q96EQ0), the log2 fold change is inactive: -0.001. The same measure, in the same setting: the figure for SERBP1 isoform 3 (UniProt Q8NC51) is inactive: 0.06. Take SIRT5 (UniProt Q9NXA8): the log2 fold change was inactive: -0.097. The same measure, in the same setting: the figure for SELENOF (UniProt O60613) is inactive: -0.017; for SEPTIN8 (UniProt Q92599) it is inactive: -0.012. Same read-out and setting: the figure for SEC61B (UniProt P60468) is inactive: -0.039. Same read-out and setting: the figure for SGF29 (UniProt Q96ES7) is inactive: 0.021.

Compound in the next assay: C/C(=N\NC(=O)C1=CC(=CC=C1)S(=O)(=O)N2CCOCC2)/C3=C(C=CC(=C3)Cl)O
The assay is described as above. A digest of the protocol: as §1
For the target SF3A1 (UniProt Q15459), the log2 fold change was inactive: 0.008. Still for that read-out and setting: as for SERPINI1 (UniProt Q99574), the figure is inactive: -0.077. SGTA (UniProt O43765): the log2 fold change is inactive: 0.014. On the same count and under the same terms, as for SF3B4 (UniProt Q15427), the figure is inactive: -0.04; as for SF3B1 (UniProt O75533), inactive: 0.066.

As to SFSWAP isoform 2 (UniProt Q12872), the log2 fold change was inactive: 0.046.

Regarding SENP6 (UniProt Q9GZR1), the log2 fold change was inactive: 0.033. Turning to SEMA4C (UniProt Q9C0C4), the log2 fold change was inactive: 0.014. On the same count and under the same terms, the figure for SIRT6 (UniProt Q8N6T7) is inactive: 0.111. The same measure, in the same setting: as for SERGEF (UniProt Q9UGK8), the figure is inactive: 0.029; as for SERPINB8 (UniProt P50452), inactive: -0.025. On the same count and under the same terms, as for SF3A2 (UniProt Q15428), the figure is inactive: 0.073; as for SHMT1 (UniProt P34896), inactive: 0.012. For SEPTIN9 (UniProt Q9UHD8), the log2 fold change is inactive: -0.005. For the target SEPTIN5 (UniProt Q99719), the log2 fold change was inactive: 0.014. Take SIDT2 isoform 2 (UniProt Q8NBJ9): the log2 fold change is inactive: 0.026. For SH3BP5L (UniProt Q7L8J4), the log2 fold change was inactive: 0.043. In the case of SERPINH1 (UniProt P50454), the log2 fold change is inactive: 0.013. On the same count and under the same terms, as for SF3B6 (UniProt Q9Y3B4), the figure is inactive: 0.026; as for SEL1L (UniProt Q9UBV2), inactive: 0.027. For the target SFXN4 (UniProt Q6P4A7), the log2 fold change is inactive: -0.02. For the target SERPINA7 (UniProt P05543), the log2 fold change is inactive: -0.1. Still for that read-out and setting: the figure for SEPTIN6 (UniProt Q14141) is inactive: 0.026. With SIRT1 (UniProt Q96EB6), the log2 fold change was inactive: 0.04. For the target SELENOH (UniProt Q8IZQ5), the log2 fold change is inactive: 0.013. For SGTB (UniProt Q96EQ0), the log2 fold change is inactive: 0.049.

Turning to SERBP1 isoform 3 (UniProt Q8NC51), the log2 fold change was inactive: -0.266. Same read-out and setting: the figure for SIRT5 (UniProt Q9NXA8) is inactive: 0.042; for SELENOF (UniProt O60613) it is inactive: -0.044; for SEPTIN8 (UniProt Q92599) it is inactive: 0.036. On to SEC61B (UniProt P60468), for which the log2 fold change is inactive: -0.095. The same measure, in the same setting: as for SGF29 (UniProt Q96ES7), the figure is inactive: 0.029.

These data come from the supplement of paper PMC10849652.
